In publication PMC4491177, “Co-translational capturing of nascent ribosomal proteins by their dedicated chaperones” (Nature Communications, 2015):
Results are given in words; binding and its absence hold for the method and conditions named. For some of these results: Binding seen in cells or lysates may run through a third protein. Some binding calls cover weakened binding; strength is not graded here. For some of these results: Where a sequence is shown, tags or fusion partners need not be part of it. Values belong to the binder of their own block, whether it stands above or below them.

What was measured:
[1] = biological target: T1, Rpl10(1–20)-(His)6 (S. cerevisiae); assay: pull-down; (His)6-tagged Rpl10 variant and Sqt1 variant co-expressed in E. coli from pETDuet-1; Ni-NTA agarose purification from the soluble extract; 50 mM Tris-HCl (pH 7.5), 200 mM NaCl, 1.5 mM MgCl2, 5% glycerol, 0.1% NP-40, 4 °C; imidazole eluate on SDS-PAGE, Coomassie and western blot
T1 sequence: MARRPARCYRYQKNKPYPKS

[2] = biological target: T2, Sqt1.53C (yeast two-hybrid fusion) (S. cerevisiae) (UniProt P35184); assay: two-hybrid; bait fused to the Gal4 DNA-binding domain, prey to the Gal4 activation domain, reporter strain PJ69-4A; HIS3 and ADE2 reporters, plates 3 days at 30 °C
T2 sequence: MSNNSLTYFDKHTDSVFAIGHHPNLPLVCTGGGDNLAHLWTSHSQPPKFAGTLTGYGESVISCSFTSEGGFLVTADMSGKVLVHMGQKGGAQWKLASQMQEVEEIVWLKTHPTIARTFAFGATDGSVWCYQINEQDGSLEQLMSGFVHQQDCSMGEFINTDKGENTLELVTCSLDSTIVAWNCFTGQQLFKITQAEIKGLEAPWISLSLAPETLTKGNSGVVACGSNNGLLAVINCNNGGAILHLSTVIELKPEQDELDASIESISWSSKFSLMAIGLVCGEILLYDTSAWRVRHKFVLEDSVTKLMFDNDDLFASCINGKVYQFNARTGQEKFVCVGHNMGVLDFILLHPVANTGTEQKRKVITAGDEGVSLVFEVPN

[3] = biological target: T3, Sqt1 (yeast two-hybrid fusion) (S. cerevisiae) (UniProt P35184); assay: as above
T3 sequence: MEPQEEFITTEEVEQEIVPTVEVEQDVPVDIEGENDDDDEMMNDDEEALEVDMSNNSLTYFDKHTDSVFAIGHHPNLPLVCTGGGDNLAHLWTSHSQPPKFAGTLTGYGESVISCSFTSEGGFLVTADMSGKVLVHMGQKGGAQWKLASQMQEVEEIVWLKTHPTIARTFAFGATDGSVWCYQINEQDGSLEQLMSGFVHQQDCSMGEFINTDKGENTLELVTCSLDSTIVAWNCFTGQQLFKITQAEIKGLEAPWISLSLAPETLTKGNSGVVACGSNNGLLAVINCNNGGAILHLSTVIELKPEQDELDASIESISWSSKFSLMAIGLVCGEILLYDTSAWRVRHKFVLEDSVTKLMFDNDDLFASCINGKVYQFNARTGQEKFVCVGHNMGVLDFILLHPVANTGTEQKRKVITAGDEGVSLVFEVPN

Sqt1-TAP (S. cerevisiae) [4] = biological target: T4, Sqt1-TAP (S. cerevisiae) (UniProt P35184); assay: tandem-affinity purification (TAP); TAP-tagged bait purified from yeast cell lysates; 50 mM Tris-HCl (pH 7.5), 100 mM NaCl, 1.5 mM MgCl2, 5% glycerol, 0.1% NP-40; final EGTA eluates on SDS-PAGE, Coomassie staining
T4 sequence: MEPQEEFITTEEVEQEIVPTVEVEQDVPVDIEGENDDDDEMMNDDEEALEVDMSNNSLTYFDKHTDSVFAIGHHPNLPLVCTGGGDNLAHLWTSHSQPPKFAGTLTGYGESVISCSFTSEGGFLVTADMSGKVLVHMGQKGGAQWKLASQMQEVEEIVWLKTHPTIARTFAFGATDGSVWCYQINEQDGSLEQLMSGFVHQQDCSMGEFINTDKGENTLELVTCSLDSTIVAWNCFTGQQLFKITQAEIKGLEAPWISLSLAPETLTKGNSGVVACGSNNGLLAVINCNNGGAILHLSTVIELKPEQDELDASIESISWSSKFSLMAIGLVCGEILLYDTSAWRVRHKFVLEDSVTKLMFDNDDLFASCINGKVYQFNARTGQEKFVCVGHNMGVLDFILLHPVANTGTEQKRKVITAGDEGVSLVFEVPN

Sqt1-TAP (S. cerevisiae) [5] = biological target: T4, Sqt1-TAP (S. cerevisiae); assay: affinity purification of a TAP-tagged bait from yeast cells (in vivo co-purification); Sqt1-TAP or NTAP-Rrb1 bait; yEGFP fusions or 2xHA-tagged ribosomal proteins as prey; Supplementary Fig. 3b,c, methods not shown
[6] = biological target: T5, Sqt1 E156K (yeast two-hybrid fusion) (S. cerevisiae) (UniProt P35184); assay: two-hybrid; bait fused to the Gal4 DNA-binding domain, prey to the Gal4 activation domain, reporter strain PJ69-4A; HIS3 and ADE2 reporters, plates 3 days at 30 °C
T5 sequence: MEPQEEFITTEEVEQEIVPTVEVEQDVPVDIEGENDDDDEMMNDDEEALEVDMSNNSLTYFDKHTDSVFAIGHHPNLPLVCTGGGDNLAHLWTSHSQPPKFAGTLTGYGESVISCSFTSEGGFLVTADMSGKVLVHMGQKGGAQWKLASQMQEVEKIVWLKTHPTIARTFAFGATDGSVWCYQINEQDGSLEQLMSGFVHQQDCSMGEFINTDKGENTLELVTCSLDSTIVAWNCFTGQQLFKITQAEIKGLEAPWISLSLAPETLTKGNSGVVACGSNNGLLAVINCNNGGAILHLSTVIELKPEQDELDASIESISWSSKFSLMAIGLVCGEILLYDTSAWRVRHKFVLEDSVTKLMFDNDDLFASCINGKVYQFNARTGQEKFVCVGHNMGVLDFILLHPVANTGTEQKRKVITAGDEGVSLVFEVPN

[7] = biological target: T6, Sqt1 D420K (yeast two-hybrid fusion) (S. cerevisiae) (UniProt P35184); assay: as above
T6 sequence: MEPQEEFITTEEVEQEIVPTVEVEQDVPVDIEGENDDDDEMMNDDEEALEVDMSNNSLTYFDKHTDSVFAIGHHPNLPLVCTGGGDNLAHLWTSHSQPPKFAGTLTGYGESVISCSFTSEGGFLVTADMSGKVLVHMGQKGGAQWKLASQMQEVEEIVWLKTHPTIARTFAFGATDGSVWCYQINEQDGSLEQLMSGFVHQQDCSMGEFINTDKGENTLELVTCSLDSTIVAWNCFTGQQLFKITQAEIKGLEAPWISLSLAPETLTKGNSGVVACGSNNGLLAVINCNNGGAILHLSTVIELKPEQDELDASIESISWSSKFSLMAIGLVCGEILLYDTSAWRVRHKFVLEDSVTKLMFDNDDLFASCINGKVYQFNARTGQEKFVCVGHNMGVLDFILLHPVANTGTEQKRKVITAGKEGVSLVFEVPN

[8] = biological target: T7, Sqt1 E315A (yeast two-hybrid fusion) (S. cerevisiae) (UniProt P35184); assay: as above
T7 sequence: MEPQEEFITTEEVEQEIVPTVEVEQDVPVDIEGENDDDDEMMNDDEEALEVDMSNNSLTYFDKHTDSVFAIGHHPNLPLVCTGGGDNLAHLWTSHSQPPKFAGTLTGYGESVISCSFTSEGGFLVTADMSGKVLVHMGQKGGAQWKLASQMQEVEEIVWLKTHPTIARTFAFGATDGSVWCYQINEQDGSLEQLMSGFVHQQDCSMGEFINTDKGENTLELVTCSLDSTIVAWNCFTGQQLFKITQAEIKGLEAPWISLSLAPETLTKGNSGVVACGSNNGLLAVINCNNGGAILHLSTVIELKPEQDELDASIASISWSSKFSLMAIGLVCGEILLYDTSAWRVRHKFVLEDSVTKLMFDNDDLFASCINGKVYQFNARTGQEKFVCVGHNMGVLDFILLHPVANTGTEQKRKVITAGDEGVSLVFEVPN

binding [1]: binds
B1: Sqt1.53C-Flag (domain or fragment, UniProt P35184 53-431)
chain: MSNNSLTYFDKHTDSVFAIGHHPNLPLVCTGGGDNLAHLWTSHSQPPKFAGTLTGYGESVISCSFTSEGGFLVTADMSGKVLVHMGQKGGAQWKLASQMQEVEEIVWLKTHPTIARTFAFGATDGSVWCYQINEQDGSLEQLMSGFVHQQDCSMGEFINTDKGENTLELVTCSLDSTIVAWNCFTGQQLFKITQAEIKGLEAPWISLSLAPETLTKGNSGVVACGSNNGLLAVINCNNGGAILHLSTVIELKPEQDELDASIESISWSSKFSLMAIGLVCGEILLYDTSAWRVRHKFVLEDSVTKLMFDNDDLFASCINGKVYQFNARTGQEKFVCVGHNMGVLDFILLHPVANTGTEQKRKVITAGDEGVSLVFEVPN

binding [2]: binds
binding [3]: binds
Binder: MARRPARCYRYQKNKPYPKS (domain or fragment) [Rpl10 amino acids 1–20 (yeast two-hybrid fusion)]

binding [3]: binds
B3: Rpl10 double substitution of Arg3/Arg4 to alanine (yeast two-hybrid fusion) (protein, UniProt P41805 1-221)
chain: MAAAPARCYRYQKNKPYPKSRYNRAVPDSKIRIYDLGKKKATVDEFPLCVHLVSNELEQLSSEALEAARICANKYMTTVSGRDAFHLRVRVHPFHVLRINKMLSCAGADRLQQGMRGAWGKPHGLAARVDIGQIIFSVRTKDSNKDVVVEGLRRARYKFPGQQKIILSKKWGFTNLDRPEYLKKREAGEVKDDGAFVKFLSKKGSLENNIREFPEYFAAQA

binding (Sqt1-TAP (S. cerevisiae) [5]): binds
B7: Rpl10-2xHA (protein, UniProt P41805 1-221)
chain: MARRPARCYRYQKNKPYPKSRYNRAVPDSKIRIYDLGKKKATVDEFPLCVHLVSNELEQLSSEALEAARICANKYMTTVSGRDAFHLRVRVHPFHVLRINKMLSCAGADRLQQGMRGAWGKPHGLAARVDIGQIIFSVRTKDSNKDVVVEGLRRARYKFPGQQKIILSKKWGFTNLDRPEYLKKREAGEVKDDGAFVKFLSKKGSLENNIREFPEYFAAQA

More lines, now with the values behind:

B2: Rpl10 (endogenous) (protein, UniProt P41805 1-221)
chain: MARRPARCYRYQKNKPYPKSRYNRAVPDSKIRIYDLGKKKATVDEFPLCVHLVSNELEQLSSEALEAARICANKYMTTVSGRDAFHLRVRVHPFHVLRINKMLSCAGADRLQQGMRGAWGKPHGLAARVDIGQIIFSVRTKDSNKDVVVEGLRRARYKFPGQQKIILSKKWGFTNLDRPEYLKKREAGEVKDDGAFVKFLSKKGSLENNIREFPEYFAAQA
binding (Sqt1-TAP (S. cerevisiae) [4]): binds

B4: Rpl10 Arg10 to glutamate (yeast two-hybrid fusion) (protein, UniProt P41805 1-221)
chain: MARRPARCYEYQKNKPYPKSRYNRAVPDSKIRIYDLGKKKATVDEFPLCVHLVSNELEQLSSEALEAARICANKYMTTVSGRDAFHLRVRVHPFHVLRINKMLSCAGADRLQQGMRGAWGKPHGLAARVDIGQIIFSVRTKDSNKDVVVEGLRRARYKFPGQQKIILSKKWGFTNLDRPEYLKKREAGEVKDDGAFVKFLSKKGSLENNIREFPEYFAAQA
binding [3]: no binding

B5: Rpl10 Arg4 to glutamate (yeast two-hybrid fusion) (protein, UniProt P41805 1-221)
chain: MAREPARCYRYQKNKPYPKSRYNRAVPDSKIRIYDLGKKKATVDEFPLCVHLVSNELEQLSSEALEAARICANKYMTTVSGRDAFHLRVRVHPFHVLRINKMLSCAGADRLQQGMRGAWGKPHGLAARVDIGQIIFSVRTKDSNKDVVVEGLRRARYKFPGQQKIILSKKWGFTNLDRPEYLKKREAGEVKDDGAFVKFLSKKGSLENNIREFPEYFAAQA
binding [3]: binds

B6: Rpl10 Arg10 to alanine (yeast two-hybrid fusion) (protein, UniProt P41805 1-221)
chain: MARRPARCYAYQKNKPYPKSRYNRAVPDSKIRIYDLGKKKATVDEFPLCVHLVSNELEQLSSEALEAARICANKYMTTVSGRDAFHLRVRVHPFHVLRINKMLSCAGADRLQQGMRGAWGKPHGLAARVDIGQIIFSVRTKDSNKDVVVEGLRRARYKFPGQQKIILSKKWGFTNLDRPEYLKKREAGEVKDDGAFVKFLSKKGSLENNIREFPEYFAAQA
binding [3]: binds

B8: Rpl10.R3E (yeast two-hybrid fusion) (protein, UniProt P41805 1-221)
chain: MAERPARCYRYQKNKPYPKSRYNRAVPDSKIRIYDLGKKKATVDEFPLCVHLVSNELEQLSSEALEAARICANKYMTTVSGRDAFHLRVRVHPFHVLRINKMLSCAGADRLQQGMRGAWGKPHGLAARVDIGQIIFSVRTKDSNKDVVVEGLRRARYKFPGQQKIILSKKWGFTNLDRPEYLKKREAGEVKDDGAFVKFLSKKGSLENNIREFPEYFAAQA
binding [6]: binds
binding [7]: no binding
binding [8]: no binding

B9: Rpl10.R4A (yeast two-hybrid fusion) (protein, UniProt P41805 1-221)
chain: MARAPARCYRYQKNKPYPKSRYNRAVPDSKIRIYDLGKKKATVDEFPLCVHLVSNELEQLSSEALEAARICANKYMTTVSGRDAFHLRVRVHPFHVLRINKMLSCAGADRLQQGMRGAWGKPHGLAARVDIGQIIFSVRTKDSNKDVVVEGLRRARYKFPGQQKIILSKKWGFTNLDRPEYLKKREAGEVKDDGAFVKFLSKKGSLENNIREFPEYFAAQA
binding [6]: no binding
binding [7]: binds
binding [8]: no binding

Binder: MARRPARCYRYQKNKPYPKS [Rpl10(1–20)-yEGFP]
binding (Sqt1-TAP (S. cerevisiae) [5]): binds
